# Percent effect of library compounds

The chains behind the UniProt entries cited, without tags or fusion partners. Residues count along the entry.
UniProt P9WFT3, whole entry: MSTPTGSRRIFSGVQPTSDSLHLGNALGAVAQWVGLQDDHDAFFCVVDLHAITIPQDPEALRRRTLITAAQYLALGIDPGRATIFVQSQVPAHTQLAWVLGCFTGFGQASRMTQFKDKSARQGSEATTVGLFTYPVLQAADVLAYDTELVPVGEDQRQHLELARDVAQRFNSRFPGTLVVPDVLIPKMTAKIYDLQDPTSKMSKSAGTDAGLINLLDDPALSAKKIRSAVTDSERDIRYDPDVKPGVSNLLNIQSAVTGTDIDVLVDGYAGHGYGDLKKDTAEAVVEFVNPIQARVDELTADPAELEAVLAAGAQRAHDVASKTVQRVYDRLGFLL
UniProt I6X8D2, whole entry: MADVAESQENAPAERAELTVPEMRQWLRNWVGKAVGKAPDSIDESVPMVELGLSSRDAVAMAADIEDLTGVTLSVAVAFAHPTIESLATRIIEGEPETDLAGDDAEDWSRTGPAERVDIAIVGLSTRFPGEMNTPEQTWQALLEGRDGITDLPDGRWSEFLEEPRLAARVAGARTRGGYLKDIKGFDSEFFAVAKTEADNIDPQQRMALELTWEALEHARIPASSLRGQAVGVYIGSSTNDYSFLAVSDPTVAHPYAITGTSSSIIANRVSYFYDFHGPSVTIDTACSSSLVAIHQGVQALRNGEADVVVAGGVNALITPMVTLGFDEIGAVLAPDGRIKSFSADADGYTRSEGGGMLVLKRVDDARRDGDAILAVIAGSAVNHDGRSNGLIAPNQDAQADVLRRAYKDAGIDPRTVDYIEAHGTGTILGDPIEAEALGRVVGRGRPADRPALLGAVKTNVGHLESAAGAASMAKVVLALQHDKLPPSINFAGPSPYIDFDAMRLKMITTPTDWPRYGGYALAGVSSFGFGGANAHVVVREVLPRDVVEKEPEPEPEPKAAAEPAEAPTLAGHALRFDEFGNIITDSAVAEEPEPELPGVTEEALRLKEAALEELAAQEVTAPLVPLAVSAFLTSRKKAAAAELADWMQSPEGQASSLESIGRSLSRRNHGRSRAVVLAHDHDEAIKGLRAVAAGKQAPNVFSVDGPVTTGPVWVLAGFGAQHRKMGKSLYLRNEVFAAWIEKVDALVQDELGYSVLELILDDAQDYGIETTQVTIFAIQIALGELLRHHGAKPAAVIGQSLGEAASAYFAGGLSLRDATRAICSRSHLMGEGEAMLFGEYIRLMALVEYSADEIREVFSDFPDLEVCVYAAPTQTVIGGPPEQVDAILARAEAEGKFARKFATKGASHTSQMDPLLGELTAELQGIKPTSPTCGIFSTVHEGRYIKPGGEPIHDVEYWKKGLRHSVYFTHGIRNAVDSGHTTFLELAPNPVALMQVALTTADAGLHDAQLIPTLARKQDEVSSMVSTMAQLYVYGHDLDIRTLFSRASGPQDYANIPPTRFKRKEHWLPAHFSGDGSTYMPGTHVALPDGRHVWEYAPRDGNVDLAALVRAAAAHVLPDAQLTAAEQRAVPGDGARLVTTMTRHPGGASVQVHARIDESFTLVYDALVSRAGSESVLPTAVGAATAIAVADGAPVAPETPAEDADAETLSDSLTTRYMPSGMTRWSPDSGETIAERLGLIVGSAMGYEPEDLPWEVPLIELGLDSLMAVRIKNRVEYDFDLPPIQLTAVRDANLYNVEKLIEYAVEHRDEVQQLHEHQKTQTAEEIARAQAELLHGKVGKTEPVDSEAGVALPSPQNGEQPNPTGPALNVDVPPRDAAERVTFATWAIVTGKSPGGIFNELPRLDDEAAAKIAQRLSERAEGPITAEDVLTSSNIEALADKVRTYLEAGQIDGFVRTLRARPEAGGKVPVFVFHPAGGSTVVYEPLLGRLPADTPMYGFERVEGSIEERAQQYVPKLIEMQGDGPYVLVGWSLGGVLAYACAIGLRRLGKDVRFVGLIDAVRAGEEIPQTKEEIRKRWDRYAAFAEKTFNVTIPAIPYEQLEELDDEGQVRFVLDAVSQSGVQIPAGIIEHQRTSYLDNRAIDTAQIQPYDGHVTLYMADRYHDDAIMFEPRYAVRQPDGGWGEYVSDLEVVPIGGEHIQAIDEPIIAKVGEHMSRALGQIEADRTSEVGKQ
UniProt A4I591, 1-473: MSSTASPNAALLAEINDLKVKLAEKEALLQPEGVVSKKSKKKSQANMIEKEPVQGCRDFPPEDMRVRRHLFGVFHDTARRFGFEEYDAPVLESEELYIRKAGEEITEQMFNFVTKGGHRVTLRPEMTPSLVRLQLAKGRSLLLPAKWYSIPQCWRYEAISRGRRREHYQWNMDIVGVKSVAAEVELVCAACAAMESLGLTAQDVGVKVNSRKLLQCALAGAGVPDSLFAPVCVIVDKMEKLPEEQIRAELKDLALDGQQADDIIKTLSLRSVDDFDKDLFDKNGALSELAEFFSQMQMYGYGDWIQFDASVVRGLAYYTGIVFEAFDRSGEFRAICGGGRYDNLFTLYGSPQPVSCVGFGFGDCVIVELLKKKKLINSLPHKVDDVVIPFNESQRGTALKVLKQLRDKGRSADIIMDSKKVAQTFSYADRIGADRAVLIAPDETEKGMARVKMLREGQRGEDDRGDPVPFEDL
UniProt Q4DA54, 1-478: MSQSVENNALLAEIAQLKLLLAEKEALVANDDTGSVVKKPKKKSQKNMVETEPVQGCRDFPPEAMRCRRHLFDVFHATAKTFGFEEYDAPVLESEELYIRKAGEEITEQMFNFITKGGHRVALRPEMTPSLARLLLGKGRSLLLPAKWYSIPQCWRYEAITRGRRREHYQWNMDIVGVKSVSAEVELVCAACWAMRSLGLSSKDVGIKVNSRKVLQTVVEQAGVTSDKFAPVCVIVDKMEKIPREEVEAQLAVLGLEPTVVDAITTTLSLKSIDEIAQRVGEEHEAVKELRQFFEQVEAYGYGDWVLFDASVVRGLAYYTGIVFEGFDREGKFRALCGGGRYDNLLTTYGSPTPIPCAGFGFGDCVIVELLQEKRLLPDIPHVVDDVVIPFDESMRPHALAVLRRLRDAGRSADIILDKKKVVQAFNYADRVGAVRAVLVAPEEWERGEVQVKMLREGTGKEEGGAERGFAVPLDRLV

Measurements from “University of Dundee, Small-Polar-MMV Screening Library” (2021), ChEMBL document CHEMBL3988442.

Each number is a percent effect as filed. How 0% and 100% were set is not recorded. Most values in the screen are low, and negative values occur. Compounds were drawn at random from those tested, without regard to their results.

MtTrpRS: 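Tryptophan-tRNA ligase, Mycobacterium tuberculosis (UniProt P9WFT3). Enzyme assay of tryptophanyl-tRNA synthetase; the read-out is not stated. Concentration: 10 µM. Direction is not recorded; retested compounds ran higher, which suggests that high means inhibition. About 65,000 compounds were tested under these conditions; 0.098% (about 64) showed 50% or more at least once.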
Pks13 thioesterase: 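Polyketide synthase Pks13, Mycobacterium tuberculosis (UniProt I6X8D2). Enzyme assay of the thioesterase domain of polyketide synthase 13; the read-out is not stated. Concentration: 30 µM. The record gives no direction; the compounds picked for IC50 retests had high values, so higher reads as stronger inhibition. Size under these conditions: about 67,000 compounds, about 300 of them at 50% or above in at least one test.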
LiHisRS: 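Histidine-tRNA ligase, Leishmania infantum (UniProt A4I591). Enzyme assay of histidyl-tRNA synthetase; the read-out is not stated. Tested at 30 µM. The record gives no direction; compounds that gave an IC50 in retests scored well above the rest, so higher reads as stronger inhibition. The assay is labelled LdHisRS but filed under L. infantum. Size under these conditions: about 69,000 compounds, about 410 of them at 50% or above in at least one test.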
TcHisRS: 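Enzyme assay of histidyl-tRNA synthetase; the read-out is not stated. Target: Histidine-tRNA ligase, Trypanosoma cruzi CL Brener (UniProt Q4DA54). Tested at 30 µM. Direction is inferred from retests: higher values go with stronger inhibition. About 69,000 compounds were tested under these conditions; 0.045% (about 31) showed 50% or more at least once.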

{"compound": "Cn1cc(CC(=O)N2CCCC(c3ccn[nH]3)C2)cn1", "stereo": "configuration not stated", "MtTrpRS": 0.983, "Pks13 thioesterase": -20.8, "LiHisRS": 9.333, "TcHisRS": -0.5291}
{"compound": "CC(=O)NCC(=O)N1CCC2(CC1)C(=O)N(CC1CC1)c1ccccc12", "MtTrpRS": -3.052, "Pks13 thioesterase": -17.7, "LiHisRS": -3.846, "TcHisRS": -4.854}
{"compound": "O=C(CC(F)(F)F)N1C[C@H]2CC[C@@H]1CN(Cc1ccccc1)C2", "MtTrpRS": -3.924, "Pks13 thioesterase": -18.86, "LiHisRS": 8.602, "TcHisRS": 2.618}
{"compound": "NCc1cn(CC2CCCN(C(=O)NCc3ccc(Cl)cc3)C2)nn1", "stereo": "configuration not stated", "MtTrpRS": 4.816, "Pks13 thioesterase": -13.56, "LiHisRS": 20.8, "TcHisRS": 0}
{"compound": "CC1COCCN1C(=O)Cc1cc(Cl)c2c(c1)OCCCO2", "stereo": "configuration not stated", "MtTrpRS": -0.4989, "Pks13 thioesterase": -6.482, "LiHisRS": 1.667, "TcHisRS": -0.8696}
{"compound": "COc1cccc(CNCc2c(C)nc3sc(C)cn23)c1OC", "MtTrpRS": -1.816, "Pks13 thioesterase": -28.34, "LiHisRS": 30.3, "TcHisRS": 6.522}
{"compound": "Cc1cccc(C)c1OCCNC(=O)C(C)n1cncn1", "stereo": "configuration not stated", "MtTrpRS": -0.4584, "Pks13 thioesterase": -11.56, "LiHisRS": 13.56, "TcHisRS": 1.143}
{"compound": "CS(=O)(=O)N1CCC(C(=O)NCCCn2cc(Cl)cn2)CC1", "MtTrpRS": 1.214, "Pks13 thioesterase": -8.582, "LiHisRS": 10.11, "TcHisRS": 3.627}
{"compound": "CC(NC(=O)c1cccs1)C(=O)NS(=O)(=O)c1cccc(C#N)c1", "stereo": "configuration not stated", "MtTrpRS": 0.6173, "Pks13 thioesterase": -10.91, "LiHisRS": 17.78, "TcHisRS": 16.67}
{"compound": "O=C(c1ccc(S(=O)(=O)NC2CCC2)cc1)N1CC[C@H]2CNC[C@H]21", "MtTrpRS": -2.058, "Pks13 thioesterase": 14.53, "LiHisRS": -8.065, "TcHisRS": -8.046}
{"compound": "CN(Cc1ccccc1)C(=O)[C@@H]1Cc2[nH]cnc2CN1C", "MtTrpRS": 0.9789, "Pks13 thioesterase": 25.66, "LiHisRS": -5.556, "TcHisRS": 0.9901}
{"compound": "O=C(Nc1ccccc1)c1nn(C2CCS(=O)(=O)C2)c2c1CCCC2", "stereo": "configuration not stated", "MtTrpRS": 0.7415, "Pks13 thioesterase": -36.15, "LiHisRS": 20, "TcHisRS": 0}
{"compound": "Cc1ccccc1C(=O)N1CC[C@@H](N(C)C)[C@@H]1Cc1cnn(C)c1", "MtTrpRS": 0.4691, "Pks13 thioesterase": -14.1, "LiHisRS": 22, "TcHisRS": 6.863}
{"compound": "O=C(CN1C(=O)c2ccccc2C1=O)N1CCOC2(CCOCC2)C1", "MtTrpRS": -2.603, "Pks13 thioesterase": -4.178, "LiHisRS": 5.085, "TcHisRS": 1.463}
{"compound": "Cc1ccc(C(=O)N2CCN(C(=O)Nc3ccccn3)CC2)o1", "MtTrpRS": -5.708, "Pks13 thioesterase": -24.07, "LiHisRS": -10.67, "TcHisRS": -0.3774}
{"compound": "c1cncc(CNc2cccc(OCCN3CCCCC3)c2)c1", "MtTrpRS": -4.182, "Pks13 thioesterase": -5.379, "LiHisRS": 11.11, "TcHisRS": 3.226}
{"compound": "COCCNS(=O)(=O)c1c(C)sc2ccccc12", "MtTrpRS": 0.08937, "Pks13 thioesterase": -16.08, "LiHisRS": 6.667, "TcHisRS": 1.587}
{"compound": "Cc1cc(C(=O)N2CCN(Cc3ccco3)C(CCO)C2)cc(=O)[nH]1", "stereo": "configuration not stated", "MtTrpRS": 0.000007, "Pks13 thioesterase": -22.05, "LiHisRS": 0, "TcHisRS": -1.02}
{"compound": "O=C(c1ccccc1)N1CCCN(C(=O)c2ncncc2Cl)CC1", "MtTrpRS": 6.416, "Pks13 thioesterase": -9.186, "LiHisRS": 14.04, "TcHisRS": 2.521}
{"compound": "COc1ccc(C)cc1-c1csc(Cn2ccc(=O)[nH]c2=O)n1", "MtTrpRS": 2.2, "Pks13 thioesterase": -44.18, "LiHisRS": 17.65, "TcHisRS": 2.941}
{"compound": "Cc1ccc(-c2ncc(C(=O)NCCNc3ncccn3)s2)c(C)c1", "MtTrpRS": -2.895, "Pks13 thioesterase": 70.6, "LiHisRS": 42.86, "TcHisRS": 0.7519}
{"compound": "CCOCCCNc1nc(O)cc(C2CC(=O)N(C)C2)n1", "stereo": "configuration not stated", "MtTrpRS": 3.261, "Pks13 thioesterase": -18.45, "LiHisRS": 16.67, "TcHisRS": -1.622}
{"compound": "COCc1cccc(CNc2cnn(C(C)(C)C)c(=O)c2Cl)c1", "MtTrpRS": -2.834, "Pks13 thioesterase": 2.784, "LiHisRS": 17.11, "TcHisRS": 3.448}
{"compound": "CCS(=O)(=O)CCNC(=O)c1cc2n(n1)CCCO2", "MtTrpRS": 0.618, "Pks13 thioesterase": -22.8, "LiHisRS": 23.38, "TcHisRS": 3.636}